# According to the supplement of paper PMC8728848:
# This is one part of the list.
# B1: Epa21 (Candida glabrata) (protein)
# chain: MGSSHHHHHHSSGLVPRGSHMASTPNIESHPQGCSPVDTSGIKPGLKMDLYRFPITPPGTGCWSWDWLTVTPDFPRSGYWKWPKIAEVDGVVGPLHLDSGHPTCDPLTSVLPHGFNYLQSITTTNFTMVLHGYFVPKQSGKYTFEFKADDALLLNLGAGNAFSCCDYNNSQYNQGEYLAYAIWSKNNQTATLYLEKGIYYPIRVFYHNRCCGAYMDVVYYFNDSPIPNRDFSGLLFSIPDSDSCDANI
# Tests used:
# Assay in all cases: glycan array binding signal (z-score within array); higher = stronger binding
# Settings in all cases: glycan notation: IUPAC condensed, linker removed
# [1] = target: Man(a1-3)[Man(a1-6)]Man(a1-6)[Man(a1-2)Man(a1-3)]Man(b1-4)GlcNAc(b1-4)GlcNAc
# Method in brief: (§1)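 Columns mapping to the same glycan were averaged after glycan names were converted to IUPAC-condensed notation. The data come from 3228 arrays in the Consortium for Functional Glycomics database, limited to those with an available protein sequence. Binding is reported as a within-array Z-score averaged across arrays of one protein sequence and across linkers.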
# [2] = target: Man(a1-3)[Man(a1-6)]Man(a1-6)[Man(a1-3)]Man
# Method in brief: as §1
# [3] = target: Man(a1-3)[Man(a1-6)]Man(a1-6)[Man(a1-3)]Man(b1-4)GlcNAc(b1-4)GlcNAc
# Method in brief: as §1
# [4] = target: Man(a1-3)[Man(a1-6)]Man(b1-4)GlcNAc(b1-4)GlcNAc
# Method in brief: as §1
# [5] = target: Man(a1-3)[Man(a1-6)]Man(b1-4)GlcNAc(b1-4)[Fuc(a1-6)]GlcNAc
# Method in brief: as §1
# Man(a1-6)Man = target: Man(a1-6)Man
# Method in brief: as §1
# Man(b1-4)GlcNAc = target: Man(b1-4)GlcNAc
# Method in brief: as §1
# MurNAc(b1-4)GlcNAc = target: MurNAc(b1-4)GlcNAc
# Method in brief: as §1
# Neu5Ac(a2-3)Gal = target: Neu5Ac(a2-3)Gal
# Method in brief: as §1
# [6] = target: Neu5Ac(a2-3)Gal(b1-3)GalNAc
# Method in brief: as §1
# [7] = target: Neu5Ac(a2-3)Gal(b1-3)GalNAc(b1-3)Gal(a1-4)Gal(b1-4)Glc
# Method in brief: as §1
# [8] = target: Neu5Ac(a2-3)Gal(b1-3)GalNAc(b1-4)Gal(b1-4)Glc
# Method in brief: as §1
# [9] = target: Neu5Ac(a2-3)Gal(b1-3)GalNAc(b1-4)[Neu5Ac(a2-3)]Gal(b1-4)Glc
# Method in brief: as §1
# [10] = target: Neu5Ac(a2-3)Gal(b1-3)GalNAc(b1-4)[Neu5Ac(a2-8)Neu5Ac(a2-3)]Gal(b1-4)Glc
# Method in brief: as §1
# [11] = target: Neu5Ac(a2-3)Gal(b1-3)GalNAc6S
# Method in brief: as §1
# [12] = target: Neu5Ac(a2-3)Gal(b1-3)GlcNAc
# Method in brief: as §1
# [13] = target: Neu5Ac(a2-3)Gal(b1-3)GlcNAc(b1-2)Man
# Method in brief: as §1
# [14] = target: Neu5Ac(a2-3)Gal(b1-3)GlcNAc(b1-2)Man(a1-3)[GlcNAc(b1-4)][Neu5Ac(a2-3)Gal(b1-3)GlcNAc(b1-2)Man(a1-6)]Man(b1-4)GlcNAc(b1-4)GlcNAc
# Method in brief: as §1
# [15] = target: Neu5Ac(a2-3)Gal(b1-3)GlcNAc(b1-2)Man(a1-3)[Neu5Ac(a2-3)Gal(b1-3)GlcNAc(b1-2)Man(a1-6)]Man(b1-4)GlcNAc(b1-4)GlcNAc
# Method in brief: as §1
# [16] = target: Neu5Ac(a2-3)Gal(b1-3)GlcNAc(b1-2)[Neu5Ac(a2-3)Gal(b1-3)GlcNAc(b1-4)]Man(a1-6)[Neu5Ac(a2-3)Gal(b1-3)GlcNAc(b1-2)Man(a1-3)]Man(b1-4)GlcNAc(b1-4)GlcNAc
# Method in brief: as §1
# [17] = target: Neu5Ac(a2-3)Gal(b1-3)GlcNAc(b1-3)Gal(b1-3)GlcNAc
# Method in brief: as §1
# [18] = target: Neu5Ac(a2-3)Gal(b1-3)GlcNAc(b1-3)Gal(b1-4)GlcNAc
# Method in brief: as §1
# [19] = target: Neu5Ac(a2-3)Gal(b1-3)GlcNAc(b1-3)GalNAc
# Method in brief: as §1
# [20] = target: Neu5Ac(a2-3)Gal(b1-3)GlcNAc(b1-6)GalNAc
# Method in brief: as §1
# [21] = target: Neu5Ac(a2-3)Gal(b1-3)GlcNAc6S
# Method in brief: as §1
# [22] = target: Neu5Ac(a2-3)Gal(b1-3)[Fuc(a1-4)]GlcNAc
# Method in brief: as §1
# [23] = target: Neu5Ac(a2-3)Gal(b1-3)[Fuc(a1-4)]GlcNAc(b1-3)Gal(b1-3)[Fuc(a1-4)]GlcNAc
# Method in brief: as §1
# [24] = target: Neu5Ac(a2-3)Gal(b1-3)[Fuc(a1-4)]GlcNAc(b1-3)Gal(b1-4)[Fuc(a1-3)]GlcNAc
# Method in brief: as §1
# [25] = target: Neu5Ac(a2-3)Gal(b1-3)[GlcNAc(b1-6)]GalNAc
# Method in brief: as §1
# [26] = target: Neu5Ac(a2-3)Gal(b1-3)[Neu5Ac(a2-6)]GalNAc
# Method in brief: as §1
# [27] = target: Neu5Ac(a2-3)Gal(b1-3)[Neu5Ac(a2-6)]GlcNAc(b1-3)[Fuc(a1-3)[Gal(b1-4)]GlcNAc(b1-6)]Gal(b1-4)Glc
# Method in brief: as §1
# [28] = target: Neu5Ac(a2-3)Gal(b1-3)]Neu5Ac(a2-3)Gal(b1-4)]GlcNAc
# Method in brief: as §1
# Neu5Ac(a2-3)Gal(b1-4)Glc = target: Neu5Ac(a2-3)Gal(b1-4)Glc
# Method in brief: as §1
# [29] = target: Neu5Ac(a2-3)Gal(b1-4)GlcNAc
# Method in brief: as §1
# [30] = target: Neu5Ac(a2-3)Gal(b1-4)GlcNAc(b1-2)Man
# Method in brief: as §1
# [31] = target: Neu5Ac(a2-3)Gal(b1-4)GlcNAc(b1-2)Man(a1-3)[GlcNAc(b1-4)][Neu5Ac(a2-3)Gal(b1-4)GlcNAc(b1-2)Man(a1-6)]Man(b1-4)GlcNAc(b1-4)GlcNAc
# Method in brief: as §1
# [32] = target: Neu5Ac(a2-3)Gal(b1-4)GlcNAc(b1-2)Man(a1-3)[Neu5Ac(a2-3)Gal(b1-4)GlcNAc(b1-2)Man(a1-6)]Man(b1-4)GlcNAc(b1-4)GlcNAc
# Method in brief: as §1
# [33] = target: Neu5Ac(a2-3)Gal(b1-4)GlcNAc(b1-2)Man(a1-3)[Neu5Ac(a2-3)Gal(b1-4)GlcNAc(b1-2)Man(a1-6)]Man(b1-4)GlcNAc(b1-4)[Fuc(a1-6)]GlcNAc
# Method in brief: as §1
binder,measurement,setting,value
B1,glycan array binding signal (z-score),[1],0.499
same,glycan array binding signal (z-score),[2],-0.026
same,glycan array binding signal (z-score),[3],0.393
same,glycan array binding signal (z-score),[4],-0.467
same,glycan array binding signal (z-score),[5],1.28
same,glycan array binding signal (z-score),Man(a1-6)Man,0.342
same,glycan array binding signal (z-score),Man(b1-4)GlcNAc,0.389
same,glycan array binding signal (z-score),MurNAc(b1-4)GlcNAc,0.152
same,glycan array binding signal (z-score),Neu5Ac(a2-3)Gal,-0.797
same,glycan array binding signal (z-score),[6],-0.287
same,glycan array binding signal (z-score),[7],-0.255
same,glycan array binding signal (z-score),[8],-0.321
same,glycan array binding signal (z-score),[9],0.041
same,glycan array binding signal (z-score),[10],-0.494
same,glycan array binding signal (z-score),[11],0.158
same,glycan array binding signal (z-score),[12],-0.169
same,glycan array binding signal (z-score),[13],-0.494
same,glycan array binding signal (z-score),[14],0.358
same,glycan array binding signal (z-score),[15],-0.261
same,glycan array binding signal (z-score),[16],0.284
same,glycan array binding signal (z-score),[17],-0.487
same,glycan array binding signal (z-score),[18],-0.39
same,glycan array binding signal (z-score),[19],-0.308
same,glycan array binding signal (z-score),[20],-0.052
same,glycan array binding signal (z-score),[21],-0.068
same,glycan array binding signal (z-score),[22],-0.234
same,glycan array binding signal (z-score),[23],-0.307
same,glycan array binding signal (z-score),[24],-0.065
same,glycan array binding signal (z-score),[25],1.2
same,glycan array binding signal (z-score),[26],0.141
same,glycan array binding signal (z-score),[27],-0.237
same,glycan array binding signal (z-score),[28],1.23
same,glycan array binding signal (z-score),Neu5Ac(a2-3)Gal(b1-4)Glc,0.54
same,glycan array binding signal (z-score),[29],-0.15
same,glycan array binding signal (z-score),[30],2.68
same,glycan array binding signal (z-score),[31],-0.308
same,glycan array binding signal (z-score),[32],-0.214
same,glycan array binding signal (z-score),[33],-0.327

# Fetched one by one from the entries so far, 2 records:
binder,measurement,setting,value
B1,glycan array binding signal (z-score),[21],-0.068
same,glycan array binding signal (z-score),[27],-0.237
